Tags and fusion partners may be left off the protein sequences shown.
Test system: T1, ZFP45723-KRAB (ZFP-TF) (synthetic construct)
T1 sequence: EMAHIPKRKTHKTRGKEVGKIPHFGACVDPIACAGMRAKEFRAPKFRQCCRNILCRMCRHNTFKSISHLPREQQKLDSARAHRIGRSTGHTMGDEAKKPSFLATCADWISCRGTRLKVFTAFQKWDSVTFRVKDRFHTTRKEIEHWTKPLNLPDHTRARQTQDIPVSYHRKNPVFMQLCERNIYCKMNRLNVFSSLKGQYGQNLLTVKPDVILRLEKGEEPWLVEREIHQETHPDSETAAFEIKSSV
Test: activity in cells
Conditions: mutant HTT mRNA repression by AAV in HD iPSC-derived cortical neurons (allele-specific RT-qPCR); direct binding not measured; protein in cells; only the site is given

With “AGCAGCAGCAGCAGCAGCAGCAGCAGCA (double strand) [HTT CAG repeat target site (45723)]” the “activity on this sequence” value was “active”.

From patent US20260116932
